# “And” between values parts separate entries of the source, which are not always exact repeats. Equal entries are not always repeated. This is one part of the list. Some salts and complexes are drawn in separate pieces, as the source files them; their charges need not balance.
# By UniProt entry, the sequences of proteins in these tests, tags left out.
# UniProt P21964, whole entry: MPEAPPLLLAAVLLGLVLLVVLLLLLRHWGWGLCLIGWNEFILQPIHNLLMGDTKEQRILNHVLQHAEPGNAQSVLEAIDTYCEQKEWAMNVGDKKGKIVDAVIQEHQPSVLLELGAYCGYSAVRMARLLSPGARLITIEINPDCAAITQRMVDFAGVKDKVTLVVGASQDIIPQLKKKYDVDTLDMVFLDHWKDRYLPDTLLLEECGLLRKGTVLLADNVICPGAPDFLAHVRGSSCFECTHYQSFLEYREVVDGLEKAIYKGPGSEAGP
# UniProt P40261, whole entry: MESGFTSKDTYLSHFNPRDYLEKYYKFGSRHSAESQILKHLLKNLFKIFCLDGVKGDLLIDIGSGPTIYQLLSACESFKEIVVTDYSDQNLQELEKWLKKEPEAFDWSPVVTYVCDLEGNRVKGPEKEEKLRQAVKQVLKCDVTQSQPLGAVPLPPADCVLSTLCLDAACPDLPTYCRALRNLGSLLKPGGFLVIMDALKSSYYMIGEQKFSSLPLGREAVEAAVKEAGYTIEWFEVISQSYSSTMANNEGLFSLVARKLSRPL
# Tested on: not listed separately
# Assay: qHTS Assay for Lipid Storage Modulators (AID 1519)
# Settings: Drosophila S3 cells, BODIPY lipid droplet/cell ratio, laser cytometry; measured here: cell count channel max response; cells loaded with oleic acid
row,SMILES,max response
1,C/C1=C2N=C(/C=C3N=C(/C(C)=C4\[N-][C@@](C)([C@H]5N=C1[C@@](C)(CCC(=O)NC[C@H](C)OP(=O)([O-])O[C@@H]1[C@H](O)[C@H](n6cnc7cc(C)c(C)cc76)O[C@@H]1CO)[C@@H]5CC(N)=O)[C@](C)(CC(N)=O)[C@H]4CCC(N)=O)[C@@](C)(CC(N)=O)[C@@H]\3CCC(N)=O)C(C)(C)[C@@H]/2CCC(N)=O.[C-]#N.[Co+3],9.91%
2,CN(C(=O)Cc1ccccc1)[C@@H]1CC[C@]2(CCCO2)C[C@H]1N1CCCC1,15.6%
3,CN(C(=O)Cc1ccc(Cl)c(Cl)c1)[C@@H]1CC[C@]2(CCCO2)C[C@H]1N1CCCC1,-33%
4,N#[O+].[C-]#N.[C-]#N.[C-]#N.[C-]#N.[C-]#N.[Fe+2].[Na+].[Na+],-17.1%
5,CCN(CCCl)Cc1ccccc1C,18.3%
6,OCCSCCO,10.6%

# Same assay, conditions: Drosophila S3 cells, BODIPY lipid droplet/cell ratio, laser cytometry; measured here: lipid channel max response; cells loaded with oleic acid
row,SMILES,max response
1,C/C1=C2N=C(/C=C3N=C(/C(C)=C4\[N-][C@@](C)([C@H]5N=C1[C@@](C)(CCC(=O)NC[C@H](C)OP(=O)([O-])O[C@@H]1[C@H](O)[C@H](n6cnc7cc(C)c(C)cc76)O[C@@H]1CO)[C@@H]5CC(N)=O)[C@](C)(CC(N)=O)[C@H]4CCC(N)=O)[C@@](C)(CC(N)=O)[C@@H]\3CCC(N)=O)C(C)(C)[C@@H]/2CCC(N)=O.[C-]#N.[Co+3],12.3%
2,CN(C(=O)Cc1ccccc1)[C@@H]1CC[C@]2(CCCO2)C[C@H]1N1CCCC1,19.2%
3,CN(C(=O)Cc1ccc(Cl)c(Cl)c1)[C@@H]1CC[C@]2(CCCO2)C[C@H]1N1CCCC1,-30.6%
4,N#[O+].[C-]#N.[C-]#N.[C-]#N.[C-]#N.[C-]#N.[Fe+2].[Na+].[Na+],-18.4%
5,CCN(CCCl)Cc1ccccc1C,27.3%
6,OCCSCCO,15.7%

# Tested on: not listed separately
# Assay: Nrf2 qHTS screen for inhibitors: Validation (AID 493153)
# Settings: A549 ARE-Fluc reporter, 18-24 h; measured here: cytotoxicity max response
# Procedure, shortened: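 Dose-response validation uses reporter A549 cells with firefly luciferase under an antioxidant response element. Compounds stay on cells 18-24 h at 37°C, and luminescence indicates Nrf2-driven transcription.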
row,SMILES,viability change
1,CN(C(=O)Cc1ccccc1)[C@@H]1CC[C@]2(CCCO2)C[C@H]1N1CCCC1,-5.32%
2,CN(C(=O)Cc1ccc(Cl)c(Cl)c1)[C@@H]1CCCC[C@@H]1N1CCCC1,-3.07%
3,CN(C(=O)Cc1ccc(Cl)c(Cl)c1)[C@@H]1CC[C@]2(CCCO2)C[C@H]1N1CCCC1,-7.62%
4,N#[O+].[C-]#N.[C-]#N.[C-]#N.[C-]#N.[C-]#N.[Fe+2].[Na+].[Na+],-16%
5,CN(C(=O)Cc1ccc(Cl)c(Cl)c1)[C@H]1CCCC[C@@H]1N1CCCC1,2.46% and -4.32%

# Tested on: not listed separately
# Assay: qHTS assay for small molecule antagonists of peroxisome proliferator-activated receptor delta signaling (AID 588535);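 further: cells co-treated with a PPAR-delta agonist as stimulator during compound exposure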
# Settings: HEK293T PPARd-UAS-bla, beta-lactamase FRET ratio, 18 h; 460 nm channel
row,SMILES,max response
1,O=[N+]([O-])c1ccc([N+](=O)[O-])cc1,-0.128%
2,Cc1cccc([N+](=O)[O-])c1[N+](=O)[O-],22.5% and -8.95%
3,Cc1cc([N+](=O)[O-])cc([N+](=O)[O-])c1O,-0.203%
4,CCC(C)(OO)OOC(C)(CC)OO (configuration not stated),-22.2%
5,O=[N+]([O-])c1cccc([N+](=O)[O-])c1,42.4% and -6.4%
6,CCOP(=S)(CC)Oc1cc(Cl)c(Cl)cc1Cl (configuration not stated),-22.5%
7,ClP(Cl)c1ccccc1,9.53%
8,NC(=O)Nc1ccc([As](=O)(O)O)cc1,-22.8%

# Tested on: not listed separately
# Assay: qHTS assay for small molecule agonists of retinoid X receptor alpha signaling (AID 588544)
# Settings: HEK293T RXRa-UAS-bla, beta-lactamase reporter, 18 h; 530 nm emission
row,SMILES,max response
1,Cc1cccc([N+](=O)[O-])c1[N+](=O)[O-],-9.27%
2,CC(C)OP(=O)(OC(C)C)SCCNS(=O)(=O)c1ccccc1,21.8%
3,[NH4+].[O-][Cl+3]([O-])([O-])[O-],-9.29%
4,Cc1ccc([N+](=O)[O-])cc1[N+](=O)[O-],-12.2% and -15.7%
5,Cc1cc([N+](=O)[O-])cc([N+](=O)[O-])c1O,13.7%
6,CCC(C)(OO)OOC(C)(CC)OO (configuration not stated),-14.1% and -2.15%
7,Cc1c([N+](=O)[O-])cccc1[N+](=O)[O-],-2.92% and -22.6%
8,O=[N+]([O-])[O-].[NH4+],-9.95%
9,O=[N+]([O-])c1cccc([N+](=O)[O-])c1,-9.49%
10,Cc1ccc([N+](=O)[O-])c([N+](=O)[O-])c1,3.74% and 22.4%
11,CCOP(=S)(CC)Oc1cc(Cl)c(Cl)cc1Cl (configuration not stated),-7.84%
12,CN(N=O)C(=N)N[N+](=O)[O-],11.2%
13,ClP(Cl)c1ccccc1,-9.19%
14,CCOP(=O)(CC)OCC,-24.1%

# Target: Catechol O-methyltransferase (Homo sapiens) (UniProt P21964)
# Assay: Confirmatory Screen for Target Class Profiling of Small Molecule Inhibitors of Methyltransferases (AID 1745852)
# Settings: MTase-Glo luminescence, SAH detection, recombinant enzyme; measured here: COMT max response; stronger effect = lower value
row,SMILES,activity
1,CN(C(=O)Cc1ccc(Cl)c(Cl)c1)[C@@H]1CCCC[C@@H]1N1CCCC1,4.03%
2,N[C@@H](Cc1ccc([N+]([O-])(CCCl)CCCl)cc1)C(=O)O,6.9%
3,CN(C(=O)Cc1ccc(Cl)c(Cl)c1)[C@H]1CCCC[C@H]1N1CCCC1,-2.88%
4,C/C1=C2N=C(/C=C3N=C(/C(C)=C4\N=C(C(CC(N)=O)C4(C)CCC(=O)NCC(C)OP(=O)([O-])OC4C(CO)OC(n5cnc6cc(C)c(C)cc65)C4O)C4(C)N=C1C(CCC(N)=O)C4(C)CC(N)=O)C(CCC(N)=O)C\3(C)C)C(CCC(N)=O)C/2(C)CC(N)=O.[C-]#N.[Co] (configuration not stated),-30.2%

# Target: Nicotinamide N-methyltransferase (Homo sapiens) (UniProt P40261)
# Assay: as above
# Settings: MTase-Glo luminescence, SAH detection, recombinant enzyme; measured here: NNMT max response; stronger effect = lower value
row,SMILES,activity
1,CN(C(=O)Cc1ccc(Cl)c(Cl)c1)[C@@H]1CCCC[C@@H]1N1CCCC1,0.599%
2,N[C@@H](Cc1ccc([N+]([O-])(CCCl)CCCl)cc1)C(=O)O,-33.8%
3,CN(C(=O)Cc1ccc(Cl)c(Cl)c1)[C@H]1CCCC[C@H]1N1CCCC1,0.547%
4,C/C1=C2N=C(/C=C3N=C(/C(C)=C4\N=C(C(CC(N)=O)C4(C)CCC(=O)NCC(C)OP(=O)([O-])OC4C(CO)OC(n5cnc6cc(C)c(C)cc65)C4O)C4(C)N=C1C(CCC(N)=O)C4(C)CC(N)=O)C(CCC(N)=O)C\3(C)C)C(CCC(N)=O)C/2(C)CC(N)=O.[C-]#N.[Co] (configuration not stated),-25.9%
